Experiment [1] deals with T1, vascular endothelial zinc finger 1 (VEZF1), endogenous (human (endogenous in Huh7)) (UniProt Q14119).
T1 sequence: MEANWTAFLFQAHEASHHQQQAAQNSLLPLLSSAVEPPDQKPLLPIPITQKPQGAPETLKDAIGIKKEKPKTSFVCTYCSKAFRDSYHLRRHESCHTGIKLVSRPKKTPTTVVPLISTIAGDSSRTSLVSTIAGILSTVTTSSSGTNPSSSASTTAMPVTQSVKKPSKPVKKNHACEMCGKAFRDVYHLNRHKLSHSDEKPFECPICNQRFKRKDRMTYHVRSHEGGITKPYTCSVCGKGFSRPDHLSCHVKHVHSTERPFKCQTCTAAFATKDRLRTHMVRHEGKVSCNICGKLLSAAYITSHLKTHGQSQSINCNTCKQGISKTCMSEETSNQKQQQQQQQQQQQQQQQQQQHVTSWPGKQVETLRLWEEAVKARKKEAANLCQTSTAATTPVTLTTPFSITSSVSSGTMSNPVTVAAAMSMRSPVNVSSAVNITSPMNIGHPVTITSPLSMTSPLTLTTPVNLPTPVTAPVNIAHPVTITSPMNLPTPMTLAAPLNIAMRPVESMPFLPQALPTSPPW
Nature of the experiment: co-IP; endogenous proteins in Huh7 cells; lysate supernatant incubated with anti-VEZF1 overnight at 4 °C, protein A/G agarose beads, Western blotting.

For experiment [2], the target named is T2, HA-tagged VEZF1, full-length (UniProt Q14119).
T2 sequence: T1 sequence
Description: co-IP; HEK293 cells co-transfected with Flag-OGT and HA-VEZF1 (full-length or truncated), harvested after 48 h; lysate incubated with anti-FLAG, anti-HA or control IgG overnight at 4 °C, protein A/G agarose beads, Western blotting.

Experiment [3] has as its target T3, HA-tagged truncated VEZF1 (168-361aa) (UniProt Q14119).
T3 sequence: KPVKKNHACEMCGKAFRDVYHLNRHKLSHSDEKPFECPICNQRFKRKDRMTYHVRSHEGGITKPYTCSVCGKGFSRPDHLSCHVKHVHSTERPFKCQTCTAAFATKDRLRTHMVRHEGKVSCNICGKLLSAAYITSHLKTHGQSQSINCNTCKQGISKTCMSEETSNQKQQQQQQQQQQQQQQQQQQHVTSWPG
The description is as above.

Experiment [4] concerns the target T4, HA-tagged truncated VEZF1 (1-167aa) (UniProt Q14119).
T4 sequence: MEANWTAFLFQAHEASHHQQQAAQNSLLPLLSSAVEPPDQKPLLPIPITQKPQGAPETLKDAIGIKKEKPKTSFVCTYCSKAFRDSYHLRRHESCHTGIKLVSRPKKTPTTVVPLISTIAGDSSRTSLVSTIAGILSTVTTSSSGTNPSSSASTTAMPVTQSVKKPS
The description is as above.

No constants are given. Whether binding was seen depends on the method and setting. In cells and extracts the contact can be indirect. Some entries that bind do so weakly or less than the wild type. For some of these results: Tags and fused reporters may be left off the sequences shown.

B1: O-GlcNAc transferase (OGT), endogenous (enzyme, UniProt O15294 1-1046)
chain: MASSVGNVADSTEPTKRMLSFQGLAELAHREYQAGDFEAAERHCMQLWRQEPDNTGVLLLLSSIHFQCRRLDRSAHFSTLAIKQNPLLAEAYSNLGNVYKERGQLQEAIEHYRHALRLKPDFIDGYINLAAALVAAGDMEGAVQAYVSALQYNPDLYCVRSDLGNLLKALGRLEEAKACYLKAIETQPNFAVAWSNLGCVFNAQGEIWLAIHHFEKAVTLDPNFLDAYINLGNVLKEARIFDRAVAAYLRALSLSPNHAVVHGNLACVYYEQGLIDLAIDTYRRAIELQPHFPDAYCNLANALKEKGSVAEAEDCYNTALRLCPTHADSLNNLANIKREQGNIEEAVRLYRKALEVFPEFAAAHSNLASVLQQQGKLQEALMHYKEAIRISPTFADAYSNMGNTLKEMQDVQGALQCYTRAIQINPAFADAHSNLASIHKDSGNIPEAIASYRTALKLKPDFPDAYCNLAHCLQIVCDWTDYDERMKKLVSIVADQLEKNRLPSVHPHHSMLYPLSHGFRKAIAERHGNLCLDKINVLHKPPYEHPKDLKLSDGRLRVGYVSSDFGNHPTSHLMQSIPGMHNPDKFEVFCYALSPDDGTNFRVKVMAEANHFIDLSQIPCNGKAADRIHQDGIHILVNMNGYTKGARNELFALRPAPIQAMWLGYPGTSGALFMDYIITDQETSPAEVAEQYSEKLAYMPHTFFIGDHANMFPHLKKKAVIDFKSNGHIYDNRIVLNGIDLKAFLDSLPDVKIVKMKCPDGGDNADSSNTALNMPVIPMNTIAEAVIEMINRGQIQITINGFSISNGLATTQINNKAATGEEVPRTIIVTTRSQYGLPEDAIVYCNFNQLYKIDPSTLQMWANILKRVPNSVLWLLRFPAVGEPNIQQYAQNMGLPQNRIIFSPVAPKEEHVRRGQLADVCLDTPLCNGHTTGMDVLWAGTPMVTMPGETLASRVAASQLTCLGCLELIAKNRQEYEDIAVKLGTDLEYLKKVRGKVWKQRISSPLFNTKQYTMELERLYLQMWEHYAAGNKPDHMIKPVEVTESA
In the case of B1, the binding result in experiment [1] is “binds”.

B2: Flag-tagged OGT (enzyme, UniProt O15294 1-1046)
chain: B1 chain
Regarding B2, the binding result in experiment [2], in experiment [3] and in experiment [4] was “binds” each time.

The values are drawn from paper PMC12381164.
